Results are given in words; binding and its absence hold for the method and conditions named. In cells and extracts the contact can be indirect. Some entries that bind do so weakly or less than the wild type.
Molecular target: T1, Scc3-6HA (budding yeast), P40541
T1 chain: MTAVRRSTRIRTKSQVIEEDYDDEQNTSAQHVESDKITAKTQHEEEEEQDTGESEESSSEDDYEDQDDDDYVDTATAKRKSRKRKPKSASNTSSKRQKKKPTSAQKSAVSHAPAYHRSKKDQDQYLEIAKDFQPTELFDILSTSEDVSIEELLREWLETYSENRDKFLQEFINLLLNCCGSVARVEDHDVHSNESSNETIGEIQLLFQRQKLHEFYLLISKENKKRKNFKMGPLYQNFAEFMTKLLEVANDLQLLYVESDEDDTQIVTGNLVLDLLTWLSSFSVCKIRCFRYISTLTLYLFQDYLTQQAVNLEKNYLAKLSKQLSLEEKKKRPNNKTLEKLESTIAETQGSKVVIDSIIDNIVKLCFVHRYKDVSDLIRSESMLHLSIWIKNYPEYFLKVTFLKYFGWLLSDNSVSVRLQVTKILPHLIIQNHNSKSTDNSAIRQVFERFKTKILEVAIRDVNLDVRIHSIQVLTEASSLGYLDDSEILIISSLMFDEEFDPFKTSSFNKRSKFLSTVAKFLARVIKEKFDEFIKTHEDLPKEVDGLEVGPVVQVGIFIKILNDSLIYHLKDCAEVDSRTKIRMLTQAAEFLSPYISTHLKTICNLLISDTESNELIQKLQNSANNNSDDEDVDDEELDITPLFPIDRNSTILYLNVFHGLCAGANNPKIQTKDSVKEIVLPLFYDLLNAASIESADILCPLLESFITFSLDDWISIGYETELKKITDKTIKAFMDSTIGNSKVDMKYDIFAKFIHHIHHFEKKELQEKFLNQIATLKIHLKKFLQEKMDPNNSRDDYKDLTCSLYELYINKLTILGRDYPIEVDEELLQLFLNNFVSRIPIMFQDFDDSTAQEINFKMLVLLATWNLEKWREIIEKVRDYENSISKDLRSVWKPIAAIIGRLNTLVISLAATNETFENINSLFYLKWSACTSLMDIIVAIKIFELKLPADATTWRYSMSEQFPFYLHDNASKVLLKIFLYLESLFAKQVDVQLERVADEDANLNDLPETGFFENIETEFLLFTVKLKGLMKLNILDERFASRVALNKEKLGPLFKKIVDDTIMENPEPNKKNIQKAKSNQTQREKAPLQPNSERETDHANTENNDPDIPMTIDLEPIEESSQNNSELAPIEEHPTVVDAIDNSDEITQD
Assay: co-IP; anti-HA immunoprecipitation of Scc3-6HA (wild type or mutant) from yeast lysates, mid-log cells; IPH150 or IPH50 buffer (50 mM Tris pH 8.0, 150/50 mM NaCl, 5 mM EDTA, 0.5% NP-40, 1 mM DTT), 4°C, protein A/G agarose, Western blot of partners; also in wpl1Δ strains and after depletion of Pds5-3V5-AID with 1 mM IAA
Conditions: remark: other sources report otherwise

B1: Pds5, Q04264 1-1277 (protein)
chain: MAKGAVTKLKFNSPIISTSDQLISTNELLDRLKALHEELASLDQDNTDLTGLDKYRDALVSRKLLKHKDVGIRAFTACCLSDILRLYAPDAPYTDAQLTDIFKLVLSQFEQLGDQENGYHIQQTYLITKLLEYRSIVLLADLPSSNNLLIELFHIFYDPNKSFPARLFNVIGGILGEVISEFDSVPLEVLRLIFNKFLTYNPNEIPEGLNVTSDCGYEVSLILCDTYSNRMSRHLTKYYSEIIHEATNDDNNSRLLTVVVKLHKLVLRLWETVPELINAVIGFIYHELSSENELFRKEATKLIGQILTSYSDLNFVSTHSDTFKAWISKIADISPDVRVEWTESIPQIIATREDISKELNQALAKTFIDSDPRVRRTSVMIFNKVPVTEIWKNITNKAIYTSLLHLAREKHKEVRELCINTMAKFYSNSLNEIERTYQNKEIWEIIDTIPSTLYNLYYINDLNINEQVDSVIFEYLLPFEPDNDKRVHRLLTVLSHFDKKAFTSFFAFNARQIKISFAISKYIDFSKFLNNQESMSSSQGPIVMNKYNQTLQWLASGLSDSTKAIDALETIKQFNDERIFYLLNACVTNDIPFLTFKNCYNELVSKLQTPGLFKKYNISTGASIMPRDIAKVIQILLFRASPIIYNVSNISVLLNLSNNSDAKQLDLKRRILDDISKVNPTLFKDQIRTLKTIIKDLDDPDAEKNDNLSLEEALKTLYKASKTLKDQVDFDDTFFFTKLYDFAVESKPEITKYATKLIALSPKAEETLKKIKIRILPLDLQKDKYFTSHIIVLMEIFKKFPHVLNDDSTDIISYLIKEVLLSNQVVGDSKKEIDWVEDSLLSDTKYSAIGNKVFTLKLFTNKLRSIAPDVPRDELAESFTEKTMKLFFYLIASGGELISEFNKEFYPTPSNYQTKLRCVAGIQVLKLARISNLNNFIKPSDIIKLINLVEDESLPVRKTFLEQLKDYVANELISIKFLPLVFFTAYEPDVELKTTTKIWINFTFGLKSFKKGTIFERALPRLIHAIAHHPDIVGGLDSEGDAYLNALTTAIDYLLFYFDSIAAQENFSLLYYLSERVKNYQDKLVEDEIDEEEGPQKEEAPKKHRPYGQKMYIIGELSQMILLNLKEKKNWQHSAYPGKLNLPSDLFKPFATVQEAQLSFKTYIPESLTEKIQNNIKAKIGRILHTSQTQRQRLQKRLLAHENNESQKKKKKVHHARSQADDEEGDGDRESDSDDDSYSPSNKNETKKGHENIVMKKLRVRKEVDYKDDEDDDIEMT
binding: binds

Reference: article PMC4352044
